Laboratory results published in article doi:10.1101/2025.07.31.668009.
No constants are given. Whether binding was seen depends on the method and setting. For part of these data: Binding seen in cells or lysates may run through a third protein. Tags and fused reporters may be left off the sequences shown.

Columns and labels:
[1] = biological target: T1, ERL2CD (cytoplasmic domain of ERL2), yeast two-hybrid fusion (Arabidopsis) (UniProt Q6XAT2); assay: two-hybrid
T1 sequence: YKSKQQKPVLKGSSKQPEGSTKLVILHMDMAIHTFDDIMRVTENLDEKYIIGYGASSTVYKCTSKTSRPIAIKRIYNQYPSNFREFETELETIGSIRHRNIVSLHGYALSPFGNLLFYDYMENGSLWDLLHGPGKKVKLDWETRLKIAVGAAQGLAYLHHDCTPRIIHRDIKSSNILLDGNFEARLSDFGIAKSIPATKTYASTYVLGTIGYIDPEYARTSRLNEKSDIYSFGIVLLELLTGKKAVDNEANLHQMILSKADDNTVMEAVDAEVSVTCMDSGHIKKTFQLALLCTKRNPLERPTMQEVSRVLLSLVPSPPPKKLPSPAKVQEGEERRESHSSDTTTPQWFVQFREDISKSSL

[2] = biological target: T2, ERL1CD (cytoplasmic domain of ERECTA-LIKE 1), yeast two-hybrid fusion (Arabidopsis) (UniProt C0LGW6); assay: two-hybrid
T2 sequence: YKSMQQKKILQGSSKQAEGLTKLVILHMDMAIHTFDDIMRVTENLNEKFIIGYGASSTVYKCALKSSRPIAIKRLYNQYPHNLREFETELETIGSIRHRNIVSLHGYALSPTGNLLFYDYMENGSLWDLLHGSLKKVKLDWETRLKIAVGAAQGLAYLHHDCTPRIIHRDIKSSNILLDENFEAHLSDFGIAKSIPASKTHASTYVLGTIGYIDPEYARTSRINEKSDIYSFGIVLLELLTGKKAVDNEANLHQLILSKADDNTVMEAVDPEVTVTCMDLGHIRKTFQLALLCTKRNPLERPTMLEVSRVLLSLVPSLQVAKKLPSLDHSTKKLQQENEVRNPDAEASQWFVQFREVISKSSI

[3] = biological target: T3, ERECTACD (cytoplasmic domain of ERECTA), yeast two-hybrid fusion (Arabidopsis) (UniProt Q42371); assay: two-hybrid
T3 sequence: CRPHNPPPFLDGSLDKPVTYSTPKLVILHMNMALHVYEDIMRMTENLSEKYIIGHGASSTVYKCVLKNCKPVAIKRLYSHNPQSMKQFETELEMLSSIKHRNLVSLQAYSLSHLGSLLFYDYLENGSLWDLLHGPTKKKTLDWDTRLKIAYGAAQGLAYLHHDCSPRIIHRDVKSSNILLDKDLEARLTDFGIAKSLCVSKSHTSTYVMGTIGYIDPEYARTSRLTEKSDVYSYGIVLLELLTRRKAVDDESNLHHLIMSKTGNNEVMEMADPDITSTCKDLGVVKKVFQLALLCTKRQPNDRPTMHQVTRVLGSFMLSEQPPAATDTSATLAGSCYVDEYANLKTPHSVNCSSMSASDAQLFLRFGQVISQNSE

[4] = biological target: T4, ERL1CD (cytoplasmic domain of ERECTA-LIKE 1), BiFC fusion (Arabidopsis) (UniProt C0LGW6); assay: split reporter
T4 sequence: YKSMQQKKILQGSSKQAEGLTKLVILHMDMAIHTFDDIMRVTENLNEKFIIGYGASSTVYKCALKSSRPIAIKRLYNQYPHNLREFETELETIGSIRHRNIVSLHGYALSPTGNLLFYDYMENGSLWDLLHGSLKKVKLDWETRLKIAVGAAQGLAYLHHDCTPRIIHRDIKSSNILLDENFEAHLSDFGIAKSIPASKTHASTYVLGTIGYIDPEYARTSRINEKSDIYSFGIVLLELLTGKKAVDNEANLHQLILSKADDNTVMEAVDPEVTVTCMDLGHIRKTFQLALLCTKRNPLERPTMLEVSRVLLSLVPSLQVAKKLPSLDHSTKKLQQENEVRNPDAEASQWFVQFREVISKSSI

[5] = biological target: T5, ERL2CD (cytoplasmic domain of ERL2), BiFC fusion (Arabidopsis) (UniProt Q6XAT2); assay: split reporter
T5 sequence: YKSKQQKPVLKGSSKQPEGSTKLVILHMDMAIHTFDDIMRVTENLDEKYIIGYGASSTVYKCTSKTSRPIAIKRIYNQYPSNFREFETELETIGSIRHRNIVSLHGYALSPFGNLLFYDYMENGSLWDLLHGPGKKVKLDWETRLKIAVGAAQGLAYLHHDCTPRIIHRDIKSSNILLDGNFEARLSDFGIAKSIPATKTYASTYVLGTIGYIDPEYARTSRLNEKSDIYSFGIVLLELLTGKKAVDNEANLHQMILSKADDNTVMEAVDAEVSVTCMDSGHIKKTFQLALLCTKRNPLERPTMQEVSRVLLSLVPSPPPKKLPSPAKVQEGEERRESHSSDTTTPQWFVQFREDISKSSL

[6] = biological target: T6, ERECTACD (cytoplasmic domain of ERECTA), BiFC fusion (Arabidopsis) (UniProt Q42371); assay: split reporter
T6 sequence: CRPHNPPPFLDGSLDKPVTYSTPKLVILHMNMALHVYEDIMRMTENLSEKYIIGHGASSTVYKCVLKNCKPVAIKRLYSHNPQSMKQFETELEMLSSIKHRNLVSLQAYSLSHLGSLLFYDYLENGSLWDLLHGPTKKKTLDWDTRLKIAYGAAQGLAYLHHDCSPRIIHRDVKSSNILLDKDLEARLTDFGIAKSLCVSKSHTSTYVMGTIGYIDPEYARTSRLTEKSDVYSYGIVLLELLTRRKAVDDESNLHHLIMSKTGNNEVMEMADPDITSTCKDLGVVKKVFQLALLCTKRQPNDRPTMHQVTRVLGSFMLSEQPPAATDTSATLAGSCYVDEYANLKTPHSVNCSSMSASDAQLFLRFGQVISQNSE

Measured: binding

B1: AP2μ (medium subunit of the AP2 complex), yeast two-hybrid fusion (protein, UniProt O23140 1-438)
chain: MPVAASAIYFLNLRGDVLINRTYRDDVGGNMVDAFRTHIMQTKELGNCPVRQIGGCSFVYMRISNVYIVIVVSSNANVACGFKFVVEAVALFKSYFGGAFDEDAIRNNFVLIYELLDEIMDFGYPQNLSPEILKLYITQEGVRSPFSSKPKDKPVPNATLQVTGAVGWRREGLAYKKNEVFLDIVESVNLLMSSKGNVLRCDVTGKVLMKCFLSGMPDLKLGLNDKIGLEKESEMKSRPAKSGKTIELDDVTFHQCVNLTRFNSEKTVSFVPPDGEFELMKYRITEGVNLPFRVLPTIKELGRTRMEVNVKVKSVFGAKMFALGVVVKIPVPKQTAKTNFQVTTGRAKYNPSIDCLVWKIRKFPGQTESTLSAEIELISTMGEKKSWTRPPIQMEFQVPMFTASGLRVRFLKVWEKSGYNTVEWVRYITKAGSYEIRC
no binding: [1] | [2] | [3]

B2: AP2μ (medium subunit of the AP2 complex), BiFC fusion (protein, UniProt O23140 1-438)
chain: MPVAASAIYFLNLRGDVLINRTYRDDVGGNMVDAFRTHIMQTKELGNCPVRQIGGCSFVYMRISNVYIVIVVSSNANVACGFKFVVEAVALFKSYFGGAFDEDAIRNNFVLIYELLDEIMDFGYPQNLSPEILKLYITQEGVRSPFSSKPKDKPVPNATLQVTGAVGWRREGLAYKKNEVFLDIVESVNLLMSSKGNVLRCDVTGKVLMKCFLSGMPDLKLGLNDKIGLEKESEMKSRPAKSGKTIELDDVTFHQCVNLTRFNSEKTVSFVPPDGEFELMKYRITEGVNLPFRVLPTIKELGRTRMEVNVKVKSVFGAKMFALGVVVKIPVPKQTAKTNFQVTTGRAKYNPSIDCLVWKIRKFPGQTESTLSAEIELISTMGEKKSWTRPPIQMEFQVPMFTASGLRVRFLKVWEKSGYNTVEWVRYITKAGSYEIRC
no binding: [4] | [5] | [6]
